Patent US20220363752A1
No constants are given. Whether binding was seen depends on the method and setting. Some binding calls cover weakened binding; strength is not graded here.

By UniProt entry, the sequences of proteins in these tests, tags left out. Where a name states a change or a piece, a line headed by the entry shows the natural chain unless it says otherwise.
UniProt Q8N386: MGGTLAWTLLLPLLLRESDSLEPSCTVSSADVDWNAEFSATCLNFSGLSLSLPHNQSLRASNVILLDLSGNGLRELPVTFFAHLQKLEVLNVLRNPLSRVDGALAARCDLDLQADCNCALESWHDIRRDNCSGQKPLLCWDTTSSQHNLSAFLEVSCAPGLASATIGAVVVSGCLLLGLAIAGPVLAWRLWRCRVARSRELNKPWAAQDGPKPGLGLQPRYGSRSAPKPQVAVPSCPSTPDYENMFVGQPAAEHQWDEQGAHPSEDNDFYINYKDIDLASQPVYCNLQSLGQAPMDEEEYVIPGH

T1: LRRC25(96-115) biotin peptide (human)
T1 sequence (peptide, N-terminal acetyl; C-terminal GGK-Biotin; native Cys changed to Ser): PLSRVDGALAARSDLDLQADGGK


Key:
[1] = target: His-tagged human LRRC25 extracellular domain protein, human LRRC25-His (human) (UniProt Q8N386); experiment: ELISA, antibody titrated on plate-immobilized Human LRRC25(ECD)-His, A450nm against -log [IgG] (M), left panel
[2] = target: His-tagged cynomolgus monkey LRRC25 extracellular domain protein, cyno LRRC25-His (cynomolgus monkey); experiment: ELISA, antibody titrated on plate-immobilized Cyno LRRC25(ECD)-His, A450nm against -log [IgG] (M), right panel
[3] = target: His-tagged cynomolgus monkey LRRC25 extracellular domain protein, cyno LRRC25-His (cynomolgus monkey); experiment: ELISA, plate-immobilized antigen
[4] = target: His-tagged human LRRC25 extracellular domain protein, human LRRC25-His (human) (UniProt Q8N386); experiment: ELISA, plate-immobilized antigen
[5] = target: T1, LRRC25(96-115) biotin peptide (human); experiment: peptide ELISA

Row | binding [1] | binding [2] | binding [3] | binding [4] | binding [5] | Binder
1 | binds | binds | binds | binds |  | anti-LRRC25 chimeric antibody 2D09 (antibody, human IgG4, V domains shown) VH: QVTLKESGPGTVQPSQTLSLTCSFSGFSLSTSGMGVSWIRQSSGKGLEWLAHIYWDDDKRYNPSLKSRLTISKDTSSNQVFLRITSVDTADTATYYCARRPRDFYGGGHWYFDVWGAGTTVTVSS VL: DVVMTQTPKSMSMSVGERVTLNCKASENVGTYVSWYQQKPEQSPKLLIYGASNRYTGVPDRFTGSGSATDFTLTISSMQAEDLADYHCGQSYNFPLTFGAGTKLELKR
2 |  |  | binds |  |  | anti-LRRC25 chimeric antibody 2C07 (antibody, human IgG4, V domains shown) VH: QITLKESGPGILQPSQTLSLTCSFSGFSLTTSGMGVSWIRQPSGKGLEWLAHIYWDDDKRYNPSLRSRLTISKDTSSNQVVLKLTNVDTADTATYYCARRARDYYNSGHWYFDVWGAGTTVTVSS VL: DVVMTQTPKSMSMSVGERVTLSCKASENVGTYVSWYQQKPDQSPKLLIFGASNRYTGVPDRFTGSGSATDFTLTISSVQAEDLADYHCGQTYSFPFTFGSGTKLEIKR
3 |  |  | binds |  |  | anti-LRRC25 chimeric antibody 2C08 (antibody, human IgG4, V domains shown) VH: QVTLKESGPGILQPSQTLSLTCSFSGFSLSTSGMGVSWIRQPSGKGLEWLAHIYWDDDKRYNPSLKSRLTLSKDTSSNQVFLKITSVDTADTATYYCARRPRDYYGGGHWYFDVWGAGTTVTVSS VL: DIVMTQSPKSMSMSVGERVTLTCKASENVGTYVSWYQQKAEQSPKLLIYGASNRYTGVPDRFTGSGSATDFTLTISNVQTEDLADYHCGQSYSYPFTFGSGTKLEIKR
4 |  |  |  |  | binds | anti-LRRC25 chimeric antibody 1H04 (antibody, human IgG4, V domains shown) VH: EVQLVESGGGLVKPGGSLKLSCAASGFTFSNSAMSWVRQTPEKRLEWVASISRGGKTYYPDSVKGRFTISRDNARNILYLQMSSLRSEDTAMYYCARGQELRLFAYWGQGTLVTVSA VL: DIVMTQDAFSNPVTLGTSASISCRSSKSLLHSNGITYLYWYLQKPGQSPQLLIYQMSNLASGVPDRFSSSGSGTDFTLRISRVEAEDVGVYYCAQNLELPFTFGSGTKLEIKR
5 |  |  |  |  | binds | anti-LRRC25 chimeric antibody 3F06 (antibody, human IgG4, V domains shown) VH: DVMLVESGGGLVKPGGSLKLSCAASGFTFSSYAMSWVRQTPDKRLEWVASISSSGNTYYPDTMKGRFTISRDNARNILYLQMSSLRSEDTAMYYCARGLTGTLFAYWGQGTLVTVSA VL: DIVMTQDAPSVPVTPGESVSISCRSSKSLLHSNGITFLYWFLQKPGQSPQLLIYQMSNLASGVPDRFSSSGSGTDFTLRISRVEAEDVGVYYCAQNLELPFTFGSGTKLEIGR
6 |  |  | binds |  |  | anti-LRRC25 chimeric antibody 3C07 (antibody, human IgG4, V domains shown) VH: EVKLDESGGGLVKPGGSLKLSCAASGFTFSRYAMSWVRQTPEKRLEWVASISRGGSTYYPDSVKGRFTISRDIARDILYLQMSSLRSEDTAMYYCARGNYGSSLFAYWGQGTLVTVSA VL: DIVMTQAAFSNPVTLGTSASISCRSSKSLLHSNGITYLYWYLQKPGQSPQLLIYQMSNLASGVPDRFSSSGSGTDFTLRISRVEAEDVGVYYCAQNLELPWTFGGGTKLEIKR
7 |  |  |  |  | binds | anti-LRRC25 chimeric antibody 1H09 (antibody, human IgG4, V domains shown) VH: DVQLVESGGGLVKPGGSLKLSCAASGFTFSSYAMSWVRQTPEKRLEWVASISRGGNTYYPDSVKGRFTISRDNARNILYLQMSSLRSEDTAMYYCARGNYGNSPFAYWGQGALVTVSA VL: DVVMTQTPASLAVSLGQRATISCRASESVDSYGNSFMHWYQQKPGQPPKLLIYLASNLESGVPARFSGSGSRTDFTLTIDPVEADDAATYYCQQNNEDPFTFGSGTKLEIKR
8 |  |  | binds |  |  | anti-LRRC25 chimeric antibody 2A07 (antibody, human IgG4, V domains shown) VH: EVKLDESGGGLVQPGGSLKLSCATSGFTFSDYYMYWVRQTPEKRLEWVAYISNGGGSTYYPDTVKGRFTISRDNAKNTLYLQMSRLKSEDTAMYYCARSTAVSQMDYWGQGTSVTVSS VL: DIVLTQSPAIMSASPGEKVTLTCSASSSVRSSYLNWYQQKPGSSPKLWIHGTSNLASGVPARFSGSGSGTSYSLTISSMEAEDAASYFCHQWSSYPPTFGAGTKLELKR
9 | binds |  |  | binds |  | anti-LRRC25 chimeric antibody 3A08 (antibody, human IgG4) heavy: DVKLVESGGGLVKPGGSLKLSCAVSGFTLSSYAMSWVRQTPEKRLEWVASISRGGSTYYPDSVKGRFTISRDNGRNILNLQMSSLRSEDTAIYYCARGGGSTMITSLFAYWGQGTLVTVSAASTKGPSVFPLAPCSRSTSESTAALGCLVKDYFPEPVTVSWNSGALTSGVHTFPAVLQSSGLYSLSSVVTVPSSSLGTKTYTCNVDHKPSNTKVDKRVESKYGPPCPPCPAPEFLGGPSVFLFPPKPKDTLMISRTPEVTCVVVDVSQEDPEVQFNWYVDGVEVHNAKTKPREEQFNSTYRWSVLTVLHQDWLNGKEYKCKVSNKGLPSSIEKTISKAKGQPREPQVYTLPPSQEEMTKNQVSLTCLVKGFYPSDIAVEWESNGQPENNYKTTPPVLDSDGSFFLYSRLTVDKSRWQEGNVFSCSVMHEALHNHYTQKSLSLSLGK light: DIVMTQAAFSNPVTLGTSASISCRSSKSLLHSNGITYLYWYLQKPGQSPQLLIYQMSNLASGVPDRFSSSGSGTDFTLRISRVEAEDVGVYYCAQNLELPFTFGSGTKLEIKRTVAAPSVFIFPPSDEQLKSGTASVVCLLNNFYPREAKVQWKVDNALQSGNSQESVTEQDSKDSTYSLSSTLTLSKADYEKHKVYACEVTHQGLSSPVTKSFNRGEC

Continued, binder first:

Row | Binder | binding [1] | binding [2] | binding [3] | binding [4] | binding [5]
10 | anti-LRRC25 chimeric antibody 1E11 (antibody, human IgG4, V domains shown) VH: EVQLLETGGGLVKPGGSLKLSCAASGFTFSSSAMSWVRQTPEKRLEWVTSISRGGNTYYPDSVKGRFTISRDNARNILYLQMSSLRSEDTAMYYCARGQELRLFAYWGQGTLVTVSA VL: DIVMTQDAFSNPVTLGTSASISCRSSKSLLHSNGITYLYWYLQKPGQSPQLLIYQMSNLASGVPDRFSSSGSGTDFTLRISRVEAEDVGVYYCAQNLELPFTFGSGTKLEIKR |  |  | binds |  | binds
11 | anti-LRRC25 chimeric antibody 1A03 (antibody, human IgG4, V domains shown) VH: EVQLVESGGGLVKPGGSLKLSCAASGFTFSSSAVSWVRQTPEKRLEWVASISRGGNTYYPDSVKGRFTISRDNARNILYLQMSSLRSEDTAMYYCARGQELRLFAYWGQGTLVTVSA VL: DIVMTQAAFSNPVTLGTSASISCRSSKSLLHSNGITYLYWYLQKPGQSPQLLIYQMSNLASGVPDRFSSSGSGTDFTLRISRVEAEDVGVYYCAQNLELPPTFGGGTKLEIKR |  |  |  |  | binds
12 | anti-LRRC25 chimeric antibody 1E01 (antibody, human IgG4, V domains shown) VH: DVQLVESGGGLVKPGGSLKLSCAASGFTFSNYAMSWVRQTPEKRLEWVASISRGGNTYYPDSVKGRFTISRDNARNILYLQMSSLRSEDTAIYYCTRGNYGSSLFAYWGQGTLVTVSA VL: DIVLTQSPASLTVSLGQRATISCRASKSVSTSGYSYMHWYQQKPGQPPKLLIYLASNLESGVPARFSGSGSRTDFTLTIDPVEADDAATYYCQQNNEDPWTFGGGTKLEIKR | binds | binds | binds | binds | binds
13 | anti-LRRC25 chimeric antibody 1C10 (antibody, human IgG4, V domains shown) VH: EEKLDESGGGLVKPGGSLKLSCAASGFTFSSYAMSWVRQTPEKRLEWVASISRGGNTYYPDSVKGRFTISRDNARNILYLQMSSLRSEDTAMFYCARGDYGSSLFAYWGQGTLVTVSA VL: DIVMTQAAFSNPVTLGTSASISCRSSKSLLHSNGITYLYWYLQKPGQSPQLLIYQMSNLASGVPDRFSSSGSGTDFTLRISRVEAEDVGVYYCAQNLELPFTFGSGTKLEIKR |  |  | binds |  | binds
14 | anti-LRRC25 chimeric antibody 1A01 (antibody, human IgG4, V domains shown) VH: EVKLLESGGGLVKPGGSLKLSCAASGFTFSSYAMSWVRQTPEKRLEWVASISRGGNTYYPDSVKGRFTISRDNARNILYLQMSSLRSEDTAMYYCARGNYGNSPFAYWGQGTLVTVSA VL: DIVMTQSPASLAVSLGQRATISCRASKSVSTSGYSYMHWYQQKPGQPPKLLIYLASNLESGVPARFSGSGSGTDFTLNIHPVEEEDAATYYCQHSRELPFTFGSGTKLEIKR |  |  | binds |  | binds
15 | anti-LRRC25 chimeric antibody 1F01 (antibody, human IgG4, V domains shown) VH: EVKLEESGGGLVKPGGSLKLSCAASGFTFSNYAMSWVRQTPEKRLEWVASISRGGNTYYPDSVKGRFTISRDNARNILYLQMSSLRSEDTATYFCTKGNYGSSPFAYWGQGTLVTVSA VL: DIQMTQSPASLSASVGETVTITCRASENIYSYLAWYQQKQGKSPQLLVYNAKTLAEGVPSRFSGSGSGTQFSLKINSLQPEDFGSYYCQHHYGTPFTFGSGTKLEIKR |  |  |  |  | binds
16 | anti-LRRC25 chimeric antibody 1B03 (antibody, human IgG4, V domains shown) VH: EVQLVESGGGLVKPGGSLKLSCAASGFTFSSYAMSWVRQTPEKRLEWVASISRGGNTYYPDSMKGRFTISRDNARNILYLQMSSLRSEDTAMYYCARGQELRLFAYWGQGTLVTVSA VL: QILLTQSPASLAVSLGQRATISCRASESVDSYGNSFMHWYQQKPGQPPKLLIYLASNLESGVPARFSGSGSRTDFTLTIDPVEADDAATYYCQQNNEDPWTFGGGTKLEIKR |  |  | binds |  | binds
